Laboratory results from paper PMC4678819.

Tested on: EcoPI
Assay: stopped-flow tryptophan fluorescence
Details: 250 nM EcoPI, 1 uM DNA, association without ATP, dissociation with 4 mM ATP and 500 uM heparin; Buffer R+: 50 mM Tris-HCl pH 8.0, 50 mM KCl, 10 mM MgCl2, 1 mM DTT, 100 ug/ml BSA, 25 C; recombinant protein

“TGGCTTAGACCACCGCAGATACCAAAACTGTCCTTCTATTGACAATTCG (double strand) [6/38_PI (6/38_EcoPI)]”: binds.

For at least one entry, the source does not settle the construct or the ends of the probe. At least one verdict was read from the data and is not stated in words by the source.
